# Measured values taken from the M2OR odorant receptor database.
# Chains of the proteins cited; added tags and fusions are not shown. A change or cut given only in a name is not applied to a line headed by its entry. Chains listed by the source or under a name are the forms on record and can include a tag or linker.
# UniProt Q8NGP8: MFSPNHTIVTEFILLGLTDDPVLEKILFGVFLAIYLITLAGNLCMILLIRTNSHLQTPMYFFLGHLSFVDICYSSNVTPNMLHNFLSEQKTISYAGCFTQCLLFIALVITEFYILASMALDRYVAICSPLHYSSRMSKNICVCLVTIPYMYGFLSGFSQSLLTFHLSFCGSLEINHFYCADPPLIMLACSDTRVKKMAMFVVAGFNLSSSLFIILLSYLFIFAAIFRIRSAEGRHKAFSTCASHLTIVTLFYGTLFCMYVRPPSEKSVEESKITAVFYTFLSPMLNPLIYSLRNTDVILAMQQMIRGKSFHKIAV
# OR5L1, as listed by the source: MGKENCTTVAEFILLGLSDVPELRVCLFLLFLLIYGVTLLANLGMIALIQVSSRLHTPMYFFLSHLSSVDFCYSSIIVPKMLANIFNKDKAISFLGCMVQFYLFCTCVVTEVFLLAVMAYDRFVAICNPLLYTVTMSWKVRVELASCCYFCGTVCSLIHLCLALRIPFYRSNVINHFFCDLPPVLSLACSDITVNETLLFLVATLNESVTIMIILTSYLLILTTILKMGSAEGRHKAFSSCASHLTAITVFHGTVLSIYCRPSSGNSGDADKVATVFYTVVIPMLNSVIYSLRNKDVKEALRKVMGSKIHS
# Positions count from the first letter of the chain named. The list shows a part of the results, in another mix than the full data. Calls are pooled over several reports, among them a noisy single-well screen. The list shows a part of the results. The list shows a part of the results.
# Assays:
# Settings in all cases: stereoisomer not certain
# OR5K1 (Homo sapiens) = target: T1, OR5K1 (Homo sapiens) (UniProt Q8NHB7)
# T1 sequence (whole entry): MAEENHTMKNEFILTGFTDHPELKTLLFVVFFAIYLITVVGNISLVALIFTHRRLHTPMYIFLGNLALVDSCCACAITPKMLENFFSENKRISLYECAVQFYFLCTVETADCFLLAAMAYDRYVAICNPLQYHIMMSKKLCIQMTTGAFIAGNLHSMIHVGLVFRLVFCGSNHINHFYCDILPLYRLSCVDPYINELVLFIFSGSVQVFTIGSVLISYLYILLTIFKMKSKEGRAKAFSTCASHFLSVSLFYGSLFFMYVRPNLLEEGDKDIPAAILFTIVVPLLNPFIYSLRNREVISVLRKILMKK
# Method in brief: (§1)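 Each receptor–molecule pair is labelled responsive or non-responsive (inactive) according to whether the original authors judged the measured signal statistically different from baseline. The data were taken from the main text and supplementary material of published papers and checked for typos and inconsistencies. Assay methods differed by source, with transient luciferase assays in mammalian cell lines being common.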
# OR5K2 (Homo sapiens) = target: T2, OR5K2 (Homo sapiens) (UniProt Q8NHB8)
# T2 sequence (whole entry): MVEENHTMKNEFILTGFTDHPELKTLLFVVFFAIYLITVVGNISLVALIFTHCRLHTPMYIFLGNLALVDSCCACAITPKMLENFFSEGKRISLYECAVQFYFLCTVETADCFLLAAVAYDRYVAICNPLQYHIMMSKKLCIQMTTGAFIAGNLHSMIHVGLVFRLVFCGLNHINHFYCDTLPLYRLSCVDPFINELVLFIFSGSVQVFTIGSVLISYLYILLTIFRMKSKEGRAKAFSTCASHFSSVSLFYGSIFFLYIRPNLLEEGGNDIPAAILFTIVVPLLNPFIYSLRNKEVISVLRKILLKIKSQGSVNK
# Method in brief: as §1
# OR5K3 = tested on: T3, OR5K3
# T3 sequence (whole entry): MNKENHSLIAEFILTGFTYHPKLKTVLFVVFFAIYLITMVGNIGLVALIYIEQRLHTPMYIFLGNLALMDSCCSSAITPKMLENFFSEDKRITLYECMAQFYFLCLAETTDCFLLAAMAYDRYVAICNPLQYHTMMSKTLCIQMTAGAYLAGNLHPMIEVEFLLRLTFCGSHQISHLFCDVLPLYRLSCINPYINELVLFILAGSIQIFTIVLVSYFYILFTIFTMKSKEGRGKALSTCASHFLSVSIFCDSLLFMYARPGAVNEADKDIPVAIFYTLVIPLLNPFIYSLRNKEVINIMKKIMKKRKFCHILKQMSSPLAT
# Method in brief: as §1
# OR5K4 = tested on: T4, OR5K4
# T4 sequence (whole entry): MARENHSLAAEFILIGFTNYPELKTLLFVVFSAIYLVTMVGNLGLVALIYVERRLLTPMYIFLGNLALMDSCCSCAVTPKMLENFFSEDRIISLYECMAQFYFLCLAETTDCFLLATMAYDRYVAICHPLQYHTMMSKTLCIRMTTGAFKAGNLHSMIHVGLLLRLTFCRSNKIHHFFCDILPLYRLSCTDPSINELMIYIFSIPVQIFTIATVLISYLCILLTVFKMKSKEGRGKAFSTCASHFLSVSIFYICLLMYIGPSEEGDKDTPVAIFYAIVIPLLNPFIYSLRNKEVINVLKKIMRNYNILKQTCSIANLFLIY
# Method in brief: as §1
# OR5L1 (Homo sapiens) = target: T5, OR5L1 (Homo sapiens) (UniProt Q8NGL2)
# T5 sequence (whole entry): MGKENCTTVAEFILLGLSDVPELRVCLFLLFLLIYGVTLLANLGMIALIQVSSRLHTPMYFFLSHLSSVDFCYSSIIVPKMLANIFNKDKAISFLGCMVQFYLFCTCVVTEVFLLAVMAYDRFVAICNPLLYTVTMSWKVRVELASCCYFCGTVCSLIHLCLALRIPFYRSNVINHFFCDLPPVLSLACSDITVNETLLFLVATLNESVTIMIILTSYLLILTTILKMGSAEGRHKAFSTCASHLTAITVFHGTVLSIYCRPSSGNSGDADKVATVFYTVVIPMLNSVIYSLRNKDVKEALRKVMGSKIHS
# Method in brief: as §1
# OR5L1 = tested on: T6, OR5L1
# T6 sequence (whole entry): T5 sequence (whole entry) with T240S
# Method in brief: as §1
# OR5K3 (Homo sapiens) = OR5K3 (Homo sapiens) (UniProt A6NET4)
# Method in brief: as §1
# OR5K4 (Homo sapiens) = OR5K4 (Homo sapiens) (UniProt A6NMS3)
# Method in brief: as §1
# OR5L2 (Homo sapiens) = OR5L2 (Homo sapiens) (UniProt Q8NGL0)
# Method in brief: as §1
# OR5M1 (Homo sapiens) = OR5M1 (Homo sapiens) (UniProt Q8NGP8)
# Method in brief: as §1
# 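Further: active if original authors judged signal statistically different from baseline.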
Structure (SMILES),odorant receptor agonist call (OR5K1 (Homo sapiens)),odorant receptor agonist call (OR5K2 (Homo sapiens)),odorant receptor agonist call (OR5K3),odorant receptor agonist call (OR5K4),odorant receptor agonist call (OR5L1 (Homo sapiens)),odorant receptor agonist call (OR5L1),odorant receptor agonist call (OR5K3 (Homo sapiens)),odorant receptor agonist call (OR5K4 (Homo sapiens)),odorant receptor agonist call (OR5L2 (Homo sapiens)),odorant receptor agonist call (OR5M1 (Homo sapiens))
CCCC(=O)O,inactive,inactive,inactive,inactive,inactive,inactive,,,,
CCCCCCOC(=O)CCC,inactive,inactive,inactive,inactive,inactive,inactive,,,,
COC(=O)c1ccccc1O,inactive,inactive,inactive,inactive,inactive,inactive,,,,
CC1CCC(C(C)C)C(O)C1 (stereo unspecified),inactive,inactive,inactive,inactive,inactive,inactive,,,,
CC(C)C(=O)O,inactive,inactive,inactive,inactive,inactive,inactive,,,,
c1cnccn1,inactive,inactive,inactive,inactive,inactive,inactive,,,,
CC(=O)OC1CC2CCC1(C)C2(C)C (stereo unspecified),inactive,inactive,inactive,inactive,inactive,inactive,,,,
CC12C=CCC1C1CCC3=CC(=O)CCC3(C)C1CC2 (stereo unspecified),active,inactive,inactive,inactive,inactive,inactive,,,,
CC(=O)OC(C)(C)C1CC=C(C)CC1 (stereo unspecified),inactive,inactive,inactive,inactive,inactive,inactive,,,,
C=C(C)C1CC=C(C)C(=O)C1 (stereo unspecified),inactive,,,,,,,,,
CCCCCCCCC=O,inactive,,,,,,,,,
C=CCc1ccc(OC(C)=O)c(OC)c1,inactive,inactive,inactive,active,inactive,active,,,,
CCCCCCCC=O,inactive,inactive,inactive,inactive,inactive,inactive,,,,
COc1ccccc1O,inactive,inactive,inactive,inactive,inactive,inactive,,,,
C=CCc1ccc(OC)c(OC)c1,active,inactive,inactive,inactive,inactive,inactive,inactive,inactive,,
CC1COCc2cc3c(cc21)C(C)(C)C(C)C3(C)C (stereo unspecified),inactive,active,active,active,active,inactive,,,,
C=CCSCC=C,inactive,inactive,inactive,inactive,inactive,inactive,,,,
CCCCCC(=O)O,inactive,inactive,inactive,inactive,inactive,inactive,,,,
CC(C)CCC(=O)O,inactive,inactive,inactive,inactive,inactive,inactive,,,,
c1ccc(Oc2ccccc2)cc1,inactive,inactive,inactive,inactive,inactive,inactive,,,,
CCCCCCCCOC(C)=O,inactive,inactive,inactive,inactive,inactive,inactive,,,,
CC(C)=CCCC(C)=CC=O,inactive,inactive,inactive,inactive,inactive,inactive,,,,
CCC1(O)C2(C)CCC(C2)C1(C)C (stereo unspecified),inactive,inactive,inactive,inactive,inactive,inactive,,,,
C=CC(C)(O)CCC=C(C)C (stereo unspecified),inactive,inactive,inactive,inactive,inactive,inactive,,,,
CC12CCC(CC1)C(C)(C)O2,inactive,inactive,inactive,inactive,inactive,inactive,,,,
C=CCc1ccc(O)c(OC)c1,inactive,,,,,,,,,
CCCCCCCCCC=O,inactive,inactive,inactive,inactive,inactive,inactive,,,,

Structure (SMILES),odorant receptor agonist call (OR5K1 (Homo sapiens)),odorant receptor agonist call (OR5K2 (Homo sapiens)),odorant receptor agonist call (OR5K3),odorant receptor agonist call (OR5K4),odorant receptor agonist call (OR5L1 (Homo sapiens)),odorant receptor agonist call (OR5L1),odorant receptor agonist call (OR5K3 (Homo sapiens)),odorant receptor agonist call (OR5K4 (Homo sapiens)),odorant receptor agonist call (OR5L2 (Homo sapiens)),odorant receptor agonist call (OR5M1 (Homo sapiens))
CC12CCC(C1)C(C)(C)C2=O (stereo unspecified),inactive,inactive,inactive,inactive,inactive,inactive,,,,
O=C1CCCCCCCCCCCCCCO1,inactive,inactive,inactive,inactive,inactive,inactive,,,,
CC1=CCC(C(C)(C)O)CC1 (stereo unspecified),inactive,inactive,inactive,inactive,inactive,inactive,,,,
O=C1CCCCCCCCCCCC(=O)OCCO1,inactive,inactive,inactive,inactive,inactive,inactive,,,,
CC(C)(O)CCCC1=CCC(C=O)CC1 (stereo unspecified),,,,inactive,,inactive,,,,
COc1cc(C=O)ccc1O,inactive,inactive,inactive,inactive,inactive,inactive,,,,
CC=Cc1ccc(O)c(OC)c1,,inactive,inactive,active,inactive,active,,,,
CC(C)C=O,inactive,inactive,inactive,inactive,inactive,inactive,,,,
CCCCCOC(C)=O,inactive,inactive,inactive,inactive,inactive,inactive,,,,
COC(=O)c1ccccc1,inactive,inactive,inactive,,inactive,,,,,
CC(C)CC(=O)O,inactive,inactive,inactive,active,inactive,inactive,,,,
CCCCCCCCCCC=O,inactive,inactive,inactive,inactive,inactive,inactive,,,,
CC(=O)c1ccccc1,inactive,inactive,inactive,,inactive,,,,,
COc1cc(C)ccc1O,inactive,inactive,inactive,inactive,inactive,inactive,,,,
CCC=CCCO,inactive,inactive,inactive,inactive,inactive,inactive,,,,
CC12C=CCC1C1CCC3CC(=O)CCC3(C)C1CC2 (stereo unspecified),inactive,inactive,inactive,inactive,,inactive,,,inactive,inactive
CC(=O)OCC=C(C)CCC=C(C)C,inactive,inactive,inactive,active,inactive,inactive,,,,
CCCCCCCC=CC=O,,inactive,inactive,inactive,inactive,active,,,,
CC(C)(C)c1ccc(CCC=O)cc1,inactive,inactive,inactive,inactive,inactive,inactive,,,,
C=C(C)C1CCC2=CC(=O)CC(C)C2(C)C1 (stereo unspecified),,,,active,,inactive,,,,
O=C1CCCCC1,inactive,inactive,inactive,,inactive,,,,,
CCCCCCCOC(C)=O,inactive,inactive,inactive,inactive,inactive,inactive,,,,
CCCCCC(C)=O,inactive,inactive,inactive,,inactive,,,,,
O=CCc1ccccc1,inactive,inactive,inactive,active,inactive,active,,,,
CC(=O)C(C)=O,inactive,inactive,inactive,inactive,inactive,inactive,,,,
CC1=NC(C)SC1C (stereo unspecified),active,inactive,inactive,,inactive,,,,,
CCCCO,,inactive,inactive,inactive,inactive,inactive,,,,

# Shown with tabs: part of the list above
Structure (SMILES)	odorant receptor agonist call (OR5K1 (Homo sapiens))	odorant receptor agonist call (OR5K2 (Homo sapiens))	odorant receptor agonist call (OR5K3)	odorant receptor agonist call (OR5K4)	odorant receptor agonist call (OR5L1 (Homo sapiens))	odorant receptor agonist call (OR5L1)	odorant receptor agonist call (OR5K3 (Homo sapiens))	odorant receptor agonist call (OR5K4 (Homo sapiens))	odorant receptor agonist call (OR5L2 (Homo sapiens))	odorant receptor agonist call (OR5M1 (Homo sapiens))
CC(=O)c1ccccc1	inactive	inactive	inactive		inactive					
CC(=O)OCC=C(C)CCC=C(C)C	inactive	inactive	inactive	active	inactive	inactive				
O=CCc1ccccc1	inactive	inactive	inactive	active	inactive	active				
